Assay results reported in the supplement of paper PMC12067093, “Discovery and optimisation of a covalent ligand for TRIM25 and its application to targeted protein ubiquitination” (Chemical Science, 2025).
The other results are listed elsewhere or left out.

Protein sequences, listed by entry. Tags and fused reporters are not part of them. Lines headed by an entry give the natural chain unless they say otherwise; changes in a name come on top.
UniProt P84090, whole entry, looked up: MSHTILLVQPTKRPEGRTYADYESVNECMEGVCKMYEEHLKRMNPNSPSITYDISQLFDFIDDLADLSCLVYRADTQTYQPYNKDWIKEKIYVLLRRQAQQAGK
UniProt Q9UNN5: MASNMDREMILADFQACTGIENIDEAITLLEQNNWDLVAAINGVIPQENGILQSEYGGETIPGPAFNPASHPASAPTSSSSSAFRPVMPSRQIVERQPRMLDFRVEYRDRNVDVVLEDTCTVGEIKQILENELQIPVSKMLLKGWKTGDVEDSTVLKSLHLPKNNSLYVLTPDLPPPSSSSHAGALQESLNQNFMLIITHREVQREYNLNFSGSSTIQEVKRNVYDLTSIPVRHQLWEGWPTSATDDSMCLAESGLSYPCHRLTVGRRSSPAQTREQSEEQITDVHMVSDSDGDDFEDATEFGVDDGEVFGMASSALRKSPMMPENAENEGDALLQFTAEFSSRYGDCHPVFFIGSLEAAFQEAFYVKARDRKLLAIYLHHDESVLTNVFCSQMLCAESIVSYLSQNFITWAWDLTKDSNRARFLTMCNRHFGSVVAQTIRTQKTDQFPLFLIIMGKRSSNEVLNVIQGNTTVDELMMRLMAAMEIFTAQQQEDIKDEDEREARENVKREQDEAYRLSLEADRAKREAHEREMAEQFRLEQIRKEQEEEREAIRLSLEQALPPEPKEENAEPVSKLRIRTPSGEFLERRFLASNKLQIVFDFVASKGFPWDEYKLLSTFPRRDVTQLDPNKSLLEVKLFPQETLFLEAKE
UniProt Q15024, whole entry, looked up: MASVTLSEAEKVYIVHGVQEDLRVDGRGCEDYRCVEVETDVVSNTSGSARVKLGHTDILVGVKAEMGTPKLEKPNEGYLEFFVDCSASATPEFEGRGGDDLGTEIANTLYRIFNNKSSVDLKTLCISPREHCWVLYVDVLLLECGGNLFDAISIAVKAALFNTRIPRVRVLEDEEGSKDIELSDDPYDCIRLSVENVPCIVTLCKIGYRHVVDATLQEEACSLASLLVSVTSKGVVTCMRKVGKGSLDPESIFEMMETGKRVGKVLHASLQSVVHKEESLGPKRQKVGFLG
UniProt O95571: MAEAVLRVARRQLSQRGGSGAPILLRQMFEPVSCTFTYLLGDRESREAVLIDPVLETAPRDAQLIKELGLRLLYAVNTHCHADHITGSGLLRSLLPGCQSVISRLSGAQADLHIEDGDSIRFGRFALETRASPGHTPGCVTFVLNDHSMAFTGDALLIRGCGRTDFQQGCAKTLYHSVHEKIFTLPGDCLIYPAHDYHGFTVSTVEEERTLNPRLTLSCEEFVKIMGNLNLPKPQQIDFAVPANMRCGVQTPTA
UniProt Q96HE7: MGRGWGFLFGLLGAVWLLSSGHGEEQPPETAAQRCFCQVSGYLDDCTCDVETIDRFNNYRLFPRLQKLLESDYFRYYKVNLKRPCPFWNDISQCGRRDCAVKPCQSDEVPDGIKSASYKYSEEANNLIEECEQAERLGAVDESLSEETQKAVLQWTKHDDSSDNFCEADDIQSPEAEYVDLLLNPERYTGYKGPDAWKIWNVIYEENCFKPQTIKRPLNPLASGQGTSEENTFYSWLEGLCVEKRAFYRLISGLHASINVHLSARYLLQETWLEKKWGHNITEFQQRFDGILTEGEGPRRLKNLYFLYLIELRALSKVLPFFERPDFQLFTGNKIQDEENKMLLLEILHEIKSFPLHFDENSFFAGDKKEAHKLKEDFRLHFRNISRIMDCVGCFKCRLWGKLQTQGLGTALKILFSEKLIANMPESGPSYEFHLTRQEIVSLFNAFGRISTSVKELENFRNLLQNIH
UniProt Q9NVQ4: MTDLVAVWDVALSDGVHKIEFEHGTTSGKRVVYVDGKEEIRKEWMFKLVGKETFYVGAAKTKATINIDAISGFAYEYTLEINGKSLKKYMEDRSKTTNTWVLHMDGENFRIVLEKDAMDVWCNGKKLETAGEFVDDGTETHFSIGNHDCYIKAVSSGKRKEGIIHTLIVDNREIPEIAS
UniProt Q9BSJ8: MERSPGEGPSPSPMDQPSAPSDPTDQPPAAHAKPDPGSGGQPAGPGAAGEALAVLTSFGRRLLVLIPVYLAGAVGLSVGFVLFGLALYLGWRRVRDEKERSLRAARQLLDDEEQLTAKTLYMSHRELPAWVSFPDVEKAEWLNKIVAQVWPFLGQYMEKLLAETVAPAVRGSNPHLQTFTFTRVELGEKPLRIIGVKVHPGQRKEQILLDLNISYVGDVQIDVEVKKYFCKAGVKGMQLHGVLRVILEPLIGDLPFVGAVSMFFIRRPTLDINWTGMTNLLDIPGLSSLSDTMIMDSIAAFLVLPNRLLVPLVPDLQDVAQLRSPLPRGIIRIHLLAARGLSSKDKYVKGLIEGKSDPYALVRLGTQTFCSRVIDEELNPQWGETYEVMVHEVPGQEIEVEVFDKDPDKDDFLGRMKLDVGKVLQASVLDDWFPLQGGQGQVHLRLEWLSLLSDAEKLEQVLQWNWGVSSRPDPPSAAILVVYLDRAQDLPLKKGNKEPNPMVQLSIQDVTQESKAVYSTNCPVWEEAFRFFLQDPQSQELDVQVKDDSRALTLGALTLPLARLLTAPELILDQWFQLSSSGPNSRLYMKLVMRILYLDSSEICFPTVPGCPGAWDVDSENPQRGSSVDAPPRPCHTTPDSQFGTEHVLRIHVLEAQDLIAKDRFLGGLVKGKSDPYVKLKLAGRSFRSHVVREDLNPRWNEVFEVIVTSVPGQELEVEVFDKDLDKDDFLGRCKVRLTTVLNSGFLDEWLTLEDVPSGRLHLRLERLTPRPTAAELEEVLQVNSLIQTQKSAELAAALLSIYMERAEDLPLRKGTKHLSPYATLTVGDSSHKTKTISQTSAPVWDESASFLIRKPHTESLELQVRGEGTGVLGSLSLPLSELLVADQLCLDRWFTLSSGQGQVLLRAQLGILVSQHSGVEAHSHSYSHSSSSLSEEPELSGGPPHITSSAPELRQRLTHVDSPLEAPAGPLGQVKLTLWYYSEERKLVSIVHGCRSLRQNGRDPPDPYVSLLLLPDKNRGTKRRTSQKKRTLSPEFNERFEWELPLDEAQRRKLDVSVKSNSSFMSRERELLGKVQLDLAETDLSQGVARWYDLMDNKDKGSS
UniProt O43414: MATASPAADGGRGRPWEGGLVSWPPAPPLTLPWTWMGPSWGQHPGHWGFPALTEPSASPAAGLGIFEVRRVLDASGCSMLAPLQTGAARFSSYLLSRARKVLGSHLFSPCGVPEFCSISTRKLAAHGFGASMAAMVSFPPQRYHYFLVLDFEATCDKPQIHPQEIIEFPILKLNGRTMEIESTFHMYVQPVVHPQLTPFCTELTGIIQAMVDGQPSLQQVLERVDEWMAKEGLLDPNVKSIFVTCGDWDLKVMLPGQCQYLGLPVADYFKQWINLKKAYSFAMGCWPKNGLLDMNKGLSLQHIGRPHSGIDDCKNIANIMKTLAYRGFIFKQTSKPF
UniProt Q5FWF5: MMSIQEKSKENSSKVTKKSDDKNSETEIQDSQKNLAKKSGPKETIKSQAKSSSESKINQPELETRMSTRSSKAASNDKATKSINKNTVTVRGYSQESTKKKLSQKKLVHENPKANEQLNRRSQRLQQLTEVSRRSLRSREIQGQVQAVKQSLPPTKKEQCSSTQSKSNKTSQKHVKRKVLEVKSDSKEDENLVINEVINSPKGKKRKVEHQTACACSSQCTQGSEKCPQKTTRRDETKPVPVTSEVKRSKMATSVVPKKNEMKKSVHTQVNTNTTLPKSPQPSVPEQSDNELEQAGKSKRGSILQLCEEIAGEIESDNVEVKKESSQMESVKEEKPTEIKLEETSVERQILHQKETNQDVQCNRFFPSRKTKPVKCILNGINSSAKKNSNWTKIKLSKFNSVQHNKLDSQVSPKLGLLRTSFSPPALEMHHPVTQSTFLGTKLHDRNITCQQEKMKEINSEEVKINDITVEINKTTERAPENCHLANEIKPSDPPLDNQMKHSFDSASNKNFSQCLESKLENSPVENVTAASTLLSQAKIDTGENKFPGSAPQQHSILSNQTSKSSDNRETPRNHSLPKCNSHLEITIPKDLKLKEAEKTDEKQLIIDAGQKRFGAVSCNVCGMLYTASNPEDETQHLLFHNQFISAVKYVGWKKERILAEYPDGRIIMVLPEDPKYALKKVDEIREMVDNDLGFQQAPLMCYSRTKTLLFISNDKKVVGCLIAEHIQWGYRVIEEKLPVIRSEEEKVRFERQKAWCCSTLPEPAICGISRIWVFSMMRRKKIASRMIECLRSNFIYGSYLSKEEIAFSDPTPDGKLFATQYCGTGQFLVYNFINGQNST
UniProt Q6SJ93: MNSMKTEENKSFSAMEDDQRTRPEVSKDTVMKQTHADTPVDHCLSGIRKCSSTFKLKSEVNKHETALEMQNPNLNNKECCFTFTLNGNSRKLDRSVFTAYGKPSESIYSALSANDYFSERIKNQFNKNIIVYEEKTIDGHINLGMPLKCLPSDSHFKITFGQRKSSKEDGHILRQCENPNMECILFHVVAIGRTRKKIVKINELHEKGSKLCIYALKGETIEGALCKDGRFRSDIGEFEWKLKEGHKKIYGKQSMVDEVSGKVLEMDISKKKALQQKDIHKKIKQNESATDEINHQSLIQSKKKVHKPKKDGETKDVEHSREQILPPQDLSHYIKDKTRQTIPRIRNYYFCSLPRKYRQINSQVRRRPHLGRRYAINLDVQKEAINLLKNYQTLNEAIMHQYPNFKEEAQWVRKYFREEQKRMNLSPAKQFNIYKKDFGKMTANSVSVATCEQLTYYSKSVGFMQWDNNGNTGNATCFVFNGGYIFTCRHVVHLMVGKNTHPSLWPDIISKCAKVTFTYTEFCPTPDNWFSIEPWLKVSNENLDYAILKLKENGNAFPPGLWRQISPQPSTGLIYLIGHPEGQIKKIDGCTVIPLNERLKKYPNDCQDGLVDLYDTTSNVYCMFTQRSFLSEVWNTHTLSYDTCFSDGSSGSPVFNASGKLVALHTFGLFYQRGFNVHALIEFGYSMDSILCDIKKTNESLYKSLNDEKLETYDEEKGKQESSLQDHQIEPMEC
UniProt Q6P587: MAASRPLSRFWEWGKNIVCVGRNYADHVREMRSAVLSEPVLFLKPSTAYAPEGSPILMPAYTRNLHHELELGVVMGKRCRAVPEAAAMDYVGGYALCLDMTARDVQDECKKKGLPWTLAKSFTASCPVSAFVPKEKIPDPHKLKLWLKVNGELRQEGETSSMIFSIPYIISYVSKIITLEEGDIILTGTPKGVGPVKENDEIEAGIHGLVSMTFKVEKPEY
UniProt Q5T8I3: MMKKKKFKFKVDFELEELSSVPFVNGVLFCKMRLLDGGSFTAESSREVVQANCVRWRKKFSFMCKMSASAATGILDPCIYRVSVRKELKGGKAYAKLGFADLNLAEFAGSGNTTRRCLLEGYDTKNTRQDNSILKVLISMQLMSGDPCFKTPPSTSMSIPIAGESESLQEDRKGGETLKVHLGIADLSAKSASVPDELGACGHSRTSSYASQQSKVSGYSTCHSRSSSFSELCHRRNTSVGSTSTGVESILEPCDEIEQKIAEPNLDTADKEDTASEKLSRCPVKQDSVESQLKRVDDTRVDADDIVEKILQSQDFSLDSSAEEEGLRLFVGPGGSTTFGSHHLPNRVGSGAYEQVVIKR
UniProt Q9BZQ8: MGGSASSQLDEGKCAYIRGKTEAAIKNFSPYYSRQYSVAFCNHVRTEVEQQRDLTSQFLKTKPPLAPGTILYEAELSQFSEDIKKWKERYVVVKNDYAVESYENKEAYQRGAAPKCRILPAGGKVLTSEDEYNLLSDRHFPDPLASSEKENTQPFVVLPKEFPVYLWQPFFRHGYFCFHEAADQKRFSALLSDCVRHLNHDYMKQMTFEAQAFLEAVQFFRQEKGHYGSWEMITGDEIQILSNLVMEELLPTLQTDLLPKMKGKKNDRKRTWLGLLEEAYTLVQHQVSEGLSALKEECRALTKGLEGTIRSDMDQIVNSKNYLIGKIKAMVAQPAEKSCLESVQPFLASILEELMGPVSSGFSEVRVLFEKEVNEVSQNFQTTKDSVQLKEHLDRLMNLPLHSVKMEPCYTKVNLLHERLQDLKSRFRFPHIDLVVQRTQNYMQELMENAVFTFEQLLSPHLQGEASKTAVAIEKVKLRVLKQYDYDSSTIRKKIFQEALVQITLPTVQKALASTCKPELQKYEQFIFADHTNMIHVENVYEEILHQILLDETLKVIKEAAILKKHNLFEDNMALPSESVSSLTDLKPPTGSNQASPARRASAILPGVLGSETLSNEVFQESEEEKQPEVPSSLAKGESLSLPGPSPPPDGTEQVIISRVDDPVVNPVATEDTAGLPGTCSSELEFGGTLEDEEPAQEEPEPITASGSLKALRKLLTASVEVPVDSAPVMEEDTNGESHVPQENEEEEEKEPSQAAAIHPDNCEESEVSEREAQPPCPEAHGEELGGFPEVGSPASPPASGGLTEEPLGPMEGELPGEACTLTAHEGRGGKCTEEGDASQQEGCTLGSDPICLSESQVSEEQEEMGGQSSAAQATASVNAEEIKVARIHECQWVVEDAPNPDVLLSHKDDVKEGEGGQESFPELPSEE

Compound: Cc1cc(ccc1-c1ccccc1)C(=O)N1CCCN(CC1)C(=O)CCl [compound 10]
Experiment: probe-labelled cysteine peptide fold change vs DMSO (competition) (log2 fold change); higher = less target engagement (more negative = stronger competition)
Conditions: THP-1, incubation time: 4 h
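Further: competitive profiling in live THP-1 cells: cysteine peptides tagged with an iodoacetamide desthiobiotin (IA-DTB) probe, intensity after compound treatment relative to DMSO-treated cells.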

Target | probe-labelled cysteine peptide fold change (10 µM) | probe-labelled cysteine peptide fold change (50 µM)
FAM120B_Q96EK7_511_QEVPICTDPISK (UniProt Q96EK7) | -0.187 | 0.0894
ERH_P84090_28+33_TYADYESVNECMEGVCK (UniProt P84090) | 0.00625 | -0.232
FAF1_Q9UNN5_428_FLTMCNR (UniProt Q9UNN5) | 0.108 | 0.153
EXT2_Q93063_85_LPADSPIPERGDLSCR (UniProt Q93063) | -0.0425 | -0.335
FAM120B_Q96EK7_356_QEVPMCTGPESR (UniProt Q96EK7) | -0.475 | -0.317
FABP5_Q01469_87_KTQTVCNFTDGALVQHQEWDGK (UniProt Q01469) | 0.0231 | -0.281
ETFB_P38117_42_HSMNPFCEIAVEEAVR (UniProt P38117) | -0.0939 | 0.0327
EXOSC7_Q15024_199_LSVENVPCIVTLCK (UniProt Q15024) | 0.143 | 0.128
EXOSC9_Q06265_9_ETPLSNCER (UniProt Q06265) | -0.234 | 0.042
FAM120B_Q96EK7_404_EVPMCSDPEPR (UniProt Q96EK7) | -0.371 | -0.274
FAH_P16930_396_KFLLDGDEVIITGYCQGDGYR (UniProt P16930) | 0.0254 | -0.303
EXOSC2_Q13868_191_THFHDLPCGASVILGNNGFIWIYPTPEHKEEEAGGFIANLEPVSLADR (UniProt Q13868) | 0.188 | 0.0801
ETHE1_O95571_34_QMFEPVSCTFTYLLGDR (UniProt O95571) | 0.0825 | 0.52
EXOC4_Q96A65_786_VHCFHYLIPLAK (UniProt Q96A65) | 0.0844 | 0.695
EWSR1_Q01844_384_QCGVVK (UniProt Q01844) | 0.0717 | -0.0424
FAM129B_Q96TA1_334_AEVCVR (UniProt Q96TA1) | -0.16 | -0.155
EVI5L_Q96CN4_342_VIPHQFDSCPDK (UniProt Q96CN4) | -0.213 | -0.55
EXOSC8_Q96B26_234_LCCLHKPGGSGLTGAK (UniProt Q96B26) | 0.0172 | -0.651
ERO1A_Q96HE7_99+104_DCAVKPCQSDEVPDGIK (UniProt Q96HE7) | -0.537 | -0.143
EXOSC10_Q01780_93_VMQYHGCR (UniProt Q01780) | -0.078 | -0.00745
EXOSC9_Q06265_45+46_ISFGTDYGCCIVELGK (UniProt Q06265) | 0.111 | -0.197

Target | probe-labelled cysteine peptide fold change (10 µM) | probe-labelled cysteine peptide fold change (50 µM)
ETHE1_O95571_80_LLYAVNTHCHADHITGSGLLR (UniProt O95571) | -0.0738 | -0.00282
FAIM_Q9NVQ4_149_KLETAGEFVDDGTETHFSIGNHDCYIK (UniProt Q9NVQ4) | 0.045 | 0.0106
EXOC5_O00471_517_LSECLQK (UniProt O00471) | -0.113 | -0.144
FAM120B_Q96EK7_392_QEVPTCTGPESR (UniProt Q96EK7) | -0.46 | -0.0617
FAM126A_Q9BYI3_401_ETTGESCK (UniProt Q9BYI3) | -0.493 | -1.16
FAM118B_Q9BPY3_126_DCLYEVFDDLESK (UniProt Q9BPY3) | -0.243 | 0.086
EXOC5_O00471_542_TLNCMIGQMK (UniProt O00471) | -0.0135 | 0.00507
ESYT1_Q9BSJ8_635_GSSVDAPPRPCHTTPDSQFGTEHVLR (UniProt Q9BSJ8) | -0.0314 | -0.203
ETFA_P13804_109_QFNYTHICAGASAFGK (UniProt P13804) | -0.00826 | -0.0627
ERI3_O43414_313_GLSLQHIGRPHSGIDDCK (UniProt O43414) | 0.0184 | 0.0877
ERLIN1_O75477_310_IYFGSNIPNMFVDSSCALK (UniProt O75477) | -0.286 | -0.122
FAF1_Q9UNN5_250+260_HQLWEGWPTSATDDSMCLAESGLSYPCHR (UniProt Q9UNN5) | -0.38 | -0.42
ETHE1_O95571_170_TDFQQGCAK (UniProt O95571) | -0.118 | -1.3
ESCO1_Q5FWF5_160_EQCSSTQSK (UniProt Q5FWF5) | 0.0524 | -0.229
ESYT1_Q9BSJ8_995_LVSIVHGCR (UniProt Q9BSJ8) | -0.104 | 0.195
FAM111B_Q6SJ93_590_IDGCTVIPLNER (UniProt Q6SJ93) | -0.0515 | 0.0403
ETFDH_Q16134_589_LQINAQNCVHCK (UniProt Q16134) | 0.102 | 0.109
FAHD1_Q6P587_129_SFTASCPVSAFVPK (UniProt Q6P587) | 0.108 | 0.12
ERCC4_Q92889_803_ILWCPSPHATAELFEELK (UniProt Q92889) | -0.169 | 0.181
FAAP100_Q0VG06_309_TEPQAAEAAENFLPDEDVHCDCLVAFGHHGR (UniProt Q0VG06) | 0.118 | 0.172
FAM102B_Q5T8I3_222_VSGYSTCHSR (UniProt Q5T8I3) | -0.179 | -0.188

Part of the list above, in markdown.

| Target | probe-labelled cysteine peptide fold change (10 µM) | probe-labelled cysteine peptide fold change (50 µM) |
| --- | --- | --- |
| ETHE1_O95571_80_LLYAVNTHCHADHITGSGLLR (UniProt O95571) | -0.0738 | -0.00282 |
| FAIM_Q9NVQ4_149_KLETAGEFVDDGTETHFSIGNHDCYIK (UniProt Q9NVQ4) | 0.045 | 0.0106 |
| FAM126A_Q9BYI3_401_ETTGESCK (UniProt Q9BYI3) | -0.493 | -1.16 |
| FAM118B_Q9BPY3_126_DCLYEVFDDLESK (UniProt Q9BPY3) | -0.243 | 0.086 |
| EXOC5_O00471_542_TLNCMIGQMK (UniProt O00471) | -0.0135 | 0.00507 |
| ESYT1_Q9BSJ8_635_GSSVDAPPRPCHTTPDSQFGTEHVLR (UniProt Q9BSJ8) | -0.0314 | -0.203 |
| ETFA_P13804_109_QFNYTHICAGASAFGK (UniProt P13804) | -0.00826 | -0.0627 |
| ERI3_O43414_313_GLSLQHIGRPHSGIDDCK (UniProt O43414) | 0.0184 | 0.0877 |
| ERLIN1_O75477_310_IYFGSNIPNMFVDSSCALK (UniProt O75477) | -0.286 | -0.122 |
| FAF1_Q9UNN5_250+260_HQLWEGWPTSATDDSMCLAESGLSYPCHR (UniProt Q9UNN5) | -0.38 | -0.42 |
| ETHE1_O95571_170_TDFQQGCAK (UniProt O95571) | -0.118 | -1.3 |
| ESCO1_Q5FWF5_160_EQCSSTQSK (UniProt Q5FWF5) | 0.0524 | -0.229 |
| ESYT1_Q9BSJ8_995_LVSIVHGCR (UniProt Q9BSJ8) | -0.104 | 0.195 |
| FAM111B_Q6SJ93_590_IDGCTVIPLNER (UniProt Q6SJ93) | -0.0515 | 0.0403 |
| ETFDH_Q16134_589_LQINAQNCVHCK (UniProt Q16134) | 0.102 | 0.109 |
| FAHD1_Q6P587_129_SFTASCPVSAFVPK (UniProt Q6P587) | 0.108 | 0.12 |
| ERCC4_Q92889_803_ILWCPSPHATAELFEELK (UniProt Q92889) | -0.169 | 0.181 |
| FAM102B_Q5T8I3_222_VSGYSTCHSR (UniProt Q5T8I3) | -0.179 | -0.188 |

(cont.)

Target | probe-labelled cysteine peptide fold change (10 µM) | probe-labelled cysteine peptide fold change (50 µM)
FAM129A_Q9BZQ8_891_IHECQWVVEDAPNPDVLLSHKDDVK (UniProt Q9BZQ8) | -0.299 | -0.688
EXOC1_Q9NV70_27_LLSIVNVCK (UniProt Q9NV70) | 0.00997 | -0.000865
ERH_P84090_28_TYADYESVNECMEGVCK (UniProt P84090) | 0.162 | 0.083
ETF1_P62495_127_KVNIDFEPFKPINTSLYLCDNK (UniProt P62495) | 0.155 | -0.0188
ESCO1_Q5FWF5_376_CILNGINSSAK (UniProt Q5FWF5) | -0.0702 | -0.352
FAF1_Q9UNN5_120_NVDVVLEDTCTVGEIK (UniProt Q9UNN5) | 0.0136 | 0.109
FAM120A_Q9NZB2_531_GSQMGTVQPIPCLLSMPTR (UniProt Q9NZB2) | -0.418 | -0.472
EXOC2_Q96KP1_859_LEICALR (UniProt Q96KP1) | -0.0782 | -0.0077
ERP44_Q9BS26_189_VANILHDDCAFLSAFGDVSK (UniProt Q9BS26) | -0.195 | 0.515
ESCO2_Q56NI9_132_MQGKPVCSK (UniProt Q56NI9) | 0.0759 | 0.0284
FAM120A_Q9NZB2_1088+1103_TCNTNPHLNALSTDSACR (UniProt Q9NZB2) | -0.667 | -0.612
F2_P00734_129_SGIECQLWR (UniProt P00734) | -0.529 | -0.507
FAM120A_Q9NZB2_174_VAQSIEDHHQEVIGFCR (UniProt Q9NZB2) | -0.0204 | 0.504
ESYT2_A0FGR8_210_HMWPFICQFIEK (UniProt A0FGR8) | -0.171 | 0.379
EXD2_Q9NVH0_202_NNLLCNGLSLK (UniProt Q9NVH0) | -0.059 | -0.941
ERLIN2_O94905_128_IHHELNQFCSVHTLQEVYIELFDQIDENLK (UniProt O94905) | -0.0325 | 0.308
EZR_P15311_284_ILQLCMGNHELYMRR (UniProt P15311) | 0.0402 | 0.318
EXOC5_O00471_111_VCHLGDQLEGVNTPR (UniProt O00471) | -0.0886 | -0.158
ERMP1_Q7Z2K6_222_DGAQHAVLANCHFDSVANSPGASDDAVSCSVMLEVLR (UniProt Q7Z2K6) | 0.0903 | 0.371
ESD_P10768_181_SVSAFAPICNPVLCPWGK (UniProt P10768) | -0.0639 | -0.0992
ETFA_P13804_68_VAQDLCK (UniProt P13804) | 0.00557 | -0.0991

Target | probe-labelled cysteine peptide fold change (10 µM) | probe-labelled cysteine peptide fold change (50 µM)
FAM126B_Q8IXS8_7_CVVEEWLSEFK (UniProt Q8IXS8) | -0.174 | -0.415
ERO1A_Q96HE7_208_IWNVIYEENCFKPQTIK (UniProt Q96HE7) | -0.146 | 0.192
EXOSC8_Q96B26_233+234_LCCLHKPGGSGLTGAK (UniProt Q96B26) | 0.0841 | -0.438
ERMP1_Q7Z2K6_43_AQEPLVDGCSGGGR (UniProt Q7Z2K6) | -0.232 | -0.171
EXOC7_Q9UPT5_83_TLSCLDHVISYYHVASDTEK (UniProt Q9UPT5) | 0.00945 | -0.117
EXOC6B_Q9Y2D4_32_EIESTDTACIGPTLR (UniProt Q9Y2D4) | -0.179 | -0.097
FAM120B_Q96EK7_523_QEDSMCTHAEINQK (UniProt Q96EK7) | -0.129 | -0.0552
EXOSC7_Q15024_189_DIELSDDPYDCIR (UniProt Q15024) | 0.163 | 0.261
ETS1_P14921_31_VDLELFPSPDMECADVPLLTPSSK (UniProt P14921) | 0.255 | -0.0133
EXOC3_O60645_161_LMDLECSR (UniProt O60645) | -0.281 | -0.764
FAM129A_Q9BZQ8_516_ALASTCKPELQK (UniProt Q9BZQ8) | -0.0467 | -0.00862
ESD_P10768_45_CPALYWLSGLTCTEQNFISK (UniProt P10768) | -0.229 | -0.18
EXOSC4_Q9NPD3_97_SCEMGLQLR (UniProt Q9NPD3) | -0.0727 | -0.136
EZH2_Q15910_294_YDCFLHPFHATPNTYKR (UniProt Q15910) | 0.175 | 0.209
EXOC4_Q96A65_54_CDRDLDELIVQHYTELTTAIR (UniProt Q96A65) | -0.124 | -0.108
FAM111A_Q96PZ2_36_EQQNNCSTSLMR (UniProt Q96PZ2) | -0.0916 | 0.38
EXOC8_Q8IYI6_211_VHGFLMNDCLLVATWLPQR (UniProt Q8IYI6) | -0.132 | 0.0731
EXOC3_O60645_161_KLMDLECSR (UniProt O60645) | -0.119 | -0.681
ETF1_P62495_335_YVLHCQGTEEEK (UniProt P62495) | 0.0286 | 0.0462
EXOC6_Q8TAG9_66_MCNFHHQGFVDAITELLK (UniProt Q8TAG9) | 0.0644 | -0.864
EXTL3_O43909_400_LDQVLVEFTCK (UniProt O43909) | -0.327 | 0.705
